# PubChem BioAssay AID2685 (National Center for Advancing Translational Sciences (NCATS), 2010)
# About 2,100 (0.66%) of roughly 320,000 compounds were called active. The shares of active, inactive and inconclusive entries below differ from those in the screen. Calls follow the shape of the dose curve; as a rule, active = well fitted inhibition curve with a large enough effect in the signal ratio, with a control signal flat (not every such curve was filed as active); inconclusive = small, poorly fitted or top-dose-only effect, or effect the other way, or a change in a side signal; inactive = flat fitted curve, though single readings scatter; the % refers to the signal ratio. Potencies beside an inconclusive call are fits to weak or partial responses and may not hold up.
# Assay: qHTS Assay for Lipid Storage Modulators in Drosophila S3 Cells
# Details: BODIPY lipid droplet fluorescence, 18-24 h, cells fed with added oleic acid; lipid storage change, negative = inhibition: at 46.1 µM (top of the series) unless noted
# In short: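 Drosophila S3 cells loaded with oleic acid (400 uM, as added) and compounds at several concentrations; lipid droplets imaged by 488-nm laser-scanning cytometry, 500–530 nm intensity and object ratio to cell channel. Percent activity normalized to 20 uM Triacsin C.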
# % is scaled to controls: 0 for no effect and ±100 for the full control effect; potency is read from the fitted curve at half-maximal effect.
Compound,Potency,"lipid storage change, negative = inhibition"
COc1ccc(/C=C/C(=O)NCCN=C2NS(=O)(=O)c3ccccc32)cc1,"inconclusive: 6.51 µM [cytotoxic, single point]",–
Cc1ccc(NC(=O)COC(=O)[C@H](C)NC(=O)c2ccccc2)cc1S(=O)(=O)N1CCOCC1,–,inconclusive: -23.6%
O=C(C1CCCN(S(=O)(=O)c2cccc3cccnc23)C1)N1CCN(c2ccc(F)cc2)CC1 (stereo unspecified),–,inconclusive: 19% [at 9.22 µM]
CCOCCn1c(C(C)O)nc2ccccc21 (stereo unspecified),–,inconclusive: 8.11%
Cc1ccc(/C=N/NC(=O)c2ccc(NC(=O)c3ccccc3Cl)cc2)o1,–,inconclusive: -100%
O=C(NC1CCNCC1)C1CCCCC1,–,inconclusive: 194%
CC(Sc1nc(N2CCCCC2)c2c(c1C#N)CCCC2)C(=O)O (stereo unspecified),–,inconclusive: -0.573%
C=CCSC1=C(C#N)C(c2ccccc2Cl)C(C(=O)c2cccs2)C(O)(C(F)(F)F)N1 (stereo unspecified),–,inconclusive: 17.9%
CCOC(=O)c1cc(S(=O)(=O)N2CCOCC2)cn1C,–,inconclusive: -5.62%
CCCOC(=O)c1ccc(NC(=O)C2C3CCC(C3)C2C(=O)O)cc1 (stereo unspecified),–,inactive
CC1(C)CC(=O)C(C(=O)c2ccccc2)C(=O)C1,–,inconclusive: -20.6%
O=C(NC1CCN(Cc2ccccc2)CC1)c1cccc(S(=O)(=O)Nc2ccc(F)cc2)c1,"inconclusive: 0.411 µM [falling, partial curve, poor fit]",–
COc1ccc(CNC(=O)[C@H](C)NC(=O)C2CCN(S(=O)(=O)c3ccc(F)cc3)CC2)cc1,active: 18.4 µM,–
CCc1cccc(Oc2nn[nH]n2)c1,–,inconclusive: 46.7%
Cc1nc(C)c(C(=O)N2CCCC(CCC(=O)NCc3ccc(F)c(F)c3)C2)s1 (stereo unspecified),"inconclusive: 29.1 µM [falling, partial curve, poor fit]",–
O=C(Nc1cccc2ccccc12)c1nn(C23CC4CC(CC(C4)C2)C3)cc1[N+](=O)[O-],–,inconclusive: -0.506%
CCn1c(SCC(=O)Nc2ccc(N(C)C)cc2)nnc1-c1ccco1,–,inconclusive: 107%
O=C(Nc1cccc(Cl)c1Cl)C1CCN(C(=O)c2cccs2)CC1,–,inconclusive: -22.6%
Cc1ccc(SCC(=O)OCC(=O)N(C)CC(=O)Nc2ccc(F)cc2)cc1,–,inconclusive: 5.78%
COc1cccc(NC(=O)Nc2nnc(-c3ccccc3SCc3ccccc3)s2)c1,–,inconclusive: 344%
Cc1cc(C)n(CCCN2CCC(C(=O)Nc3cccc(-c4cccc(F)c4)c3)CC2)n1,–,inconclusive: -30.8% [at 0.00295 µM]
CC(C)CCNC(=O)C(c1ccco1)N(C(=O)Cn1nnc2ccccc21)c1ccc2c(c1)OCO2 (stereo unspecified),–,inconclusive: 61.7%
C=CCC1(N(C(C)=O)c2ccccc2)CCCCC1,–,inconclusive: -16.5%
CSc1nnc2c(n1)OC1(Nc3ccccc3-2)C(=O)Nc2ccccc21 (stereo unspecified),–,inconclusive: 21.5%
CCCCC[n+]1ccn(-c2nc3ccccc3nc2[N-]S(=O)(=O)c2ccc(C)cc2)c1,–,inconclusive: -7.74%
CCOc1ccc(NC(=O)N2CCC(NC(=O)C(Cc3ccccc3OC)NC(C)=O)CC2)cc1 (stereo unspecified),–,inconclusive: -40.5%

Compound,Potency,"lipid storage change, negative = inhibition"
COC(CNC(=O)c1cn(C)c2ccc(S(=O)(=O)N(C)C3CCCCC3)cc2c1=O)OC,–,inconclusive: -4.37%
COc1ccc(C[C@H]2CN3C(=NC[C@@H]3C(C)C)N2C[C@H](C)NC(=O)c2ccc(C)c(Br)c2)cc1,"inconclusive: 29.1 µM [falling, single point]",–
O=C(O)c1ccccc1S(=O)CCO (stereo unspecified),–,inconclusive: 42.3%
N#CC(C(N)=O)=C1CCCCC1,"inconclusive: 23.1 µM [activator, partial curve, poor fit]",–
COc1cccc(N2C(=O)C3ON(c4ccccc4)C(c4cccs4)C3C2=O)c1 (stereo unspecified),–,inconclusive: 8.33% [at 9.22 µM]
Cc1onc(-c2ccccc2Cl)c1C(=O)NC(=S)Nc1ccc(C(C)C)cc1,–,inconclusive: -1.96%
O=C(Nc1cc(Br)ccc1O)c1cc(-c2ccccc2)on1,–,inconclusive: 34.3%
COc1cccc(C(=O)NCCSc2c(C)[nH]c3ccccc23)c1OC,–,inconclusive: -68.1%
COc1ccc(C(=O)Nc2c(C)cc(C)cc2C)cc1OC,–,inconclusive: 49%
CC(C)Oc1ccc(S(=O)(=O)N2CCOCC2)cc1NC(=O)CC1CCCC1,"inconclusive: 10.3 µM [activator, partial curve]",–
O=C(O)c1cccc(S(=O)(=O)Nc2ccccc2-c2ccccc2)c1,"inconclusive: 6.51 µM [cytotoxic, single point]",–
O=C(NCc1nc2ccccc2[nH]1)c1ccc(S(=O)(=O)N2CCOCC2)cc1,–,inconclusive: 37.4%
COc1cccc(-n2c(Cc3cc(=O)[nH]c(=O)[nH]3)nnc2SCC(=O)N2CCCCCC2)c1,–,inconclusive: -55.7%
COc1ccc(C(=O)NCCS(=O)(=O)NCc2cccs2)cc1,"inconclusive: 0.0058 µM [falling, full curve, poor fit]",–
COC(=O)c1ccc(SCC(=O)N2CCC(C)CC2)c([N+](=O)[O-])c1,–,inconclusive: 28.6%
CN1CCN(CC(O)COC(c2ccccc2)c2ccccc2)CC1 (stereo unspecified),–,inconclusive: -25.3%
Cc1cc(C)nc(-n2nc(C)cc2NC(=O)CNC2CCCCC2)n1,"inconclusive: 23.1 µM [activator, partial curve, poor fit]",–
O=C(CSc1nnnn1-c1ccccc1)Nc1ccc(Cl)cc1,–,inconclusive: 11%
COc1ccc(OC)c(NC(=O)c2ccc(CN3CCOCC3)cc2)c1,–,inconclusive: 19.1%
O=C(NN1C(=O)NC2(CCCCC2)C1=O)c1ccc(Cl)c(Cl)c1,–,inconclusive: -6.53%
CCOc1ccc2nc(SCC(=O)NCc3ccccc3)[nH]c2c1,"inconclusive: 29.1 µM [falling, single point]",–
Cc1ccnc(NC(=O)c2cc3c(=O)oc4ccc(C)cc4c3s2)c1,–,inconclusive: -27.2%
COC(=O)CC(N)c1ccc(Br)cc1 (stereo unspecified),–,inconclusive: 11.8%
COc1cccc(N2CCN(S(=O)(=O)c3cccc4cccnc34)CC2)c1,–,inconclusive: -17.5%
CC(C)NC(=O)c1cccc(Cn2cc(Cl)cn2)c1,–,inconclusive: 13.5%
N#Cc1cc(Br)ccc1N=C1CCCN1c1ccccc1,–,inconclusive: 33.4%

Compound,Potency,"lipid storage change, negative = inhibition"
Cc1ccnc(NC(NC(=O)C(C)C)(C(F)(F)F)C(F)(F)F)c1,–,inconclusive: -4.55%
CN(C)S(=O)(=O)c1cccc(NC(=O)COC(=O)COc2ccccc2[N+](=O)[O-])c1,–,inconclusive: 1.25%
O=C1NC2=C(C(=O)CCC2)C(c2ccc([N+](=O)[O-])cc2)N1 (stereo unspecified),"inconclusive: 11.6 µM [activator, partial curve]",–
CCOP(=O)(OCC)C(Nc1cccc([N+](=O)[O-])c1)c1ccccc1 (stereo unspecified),–,inconclusive: -2.2%
O=C(CN1C(=O)NC2(CCCc3ccccc32)C1=O)Nc1cc(F)ccc1F (stereo unspecified),–,inconclusive
CC(=O)c1ccc(S(=O)(=O)NCC(=O)Nc2nc3ccccc3[nH]2)cc1,–,inconclusive: -2.71%
CCC(C)Sc1ccc(-c2nc3ccc(C)cn3c2NCc2ccccc2)cc1OC (stereo unspecified),"inconclusive: 29.1 µM [falling, single point]",–
CCCSc1ccc([C@@H]2[C@H]3C(=O)N(CC)C(=O)[C@H]3[C@]3(C(=O)OC)CCCCN23)cc1,–,inconclusive: -100%
CN(C)CCCn1c(-c2ccccc2)nc(=S)c2c1CCCC2,–,inconclusive: -9.27%
CC(=O)c1cccc(NC(=O)C2CC(c3ccc(F)cc3)=NO2)c1 (stereo unspecified),"inconclusive: 29.1 µM [activator, single point]",–
NC(=O)CC(NC(=O)Cc1cccc2ccccc12)c1ccc(NCCN2CCCC2)c([N+](=O)[O-])c1 (stereo unspecified),"inconclusive: 0.0366 µM [activator, full curve, poor fit]",–
COc1ccc(OC)c(C2C3=C(CCCC3=O)Nc3c2c(=O)n(C)c(=O)n3C)c1 (stereo unspecified),–,inconclusive: 15%
O=C(CN1CCC(c2nc3ccccc3[nH]2)CC1)Nc1ccc2c(c1)OCO2,"inconclusive: 0.411 µM [activator, full curve]",–
O=C(N[C@@H](Cc1ccccc1)C(=O)OCc1ccccc1)c1nc[nH]c1C(=O)NCc1ccccc1,–,inconclusive: -6.3%
CCOC(=O)c1ccc(-n2c(C)ccc2C)cc1,–,inconclusive: 12.8%
CN1CCN(C(=O)c2ccc3c(=O)n(Cc4ccc(Cl)cc4)c(=S)[nH]c3c2)CC1,–,inconclusive: 6.88%
CC(C)C1CC(CCN2CCCCC2)(c2ccccc2)CCO1 (stereo unspecified),"inconclusive: 8.2 µM [cytotoxic, partial curve, poor fit]",–
OC(COCc1ccc(Cl)cc1)CN1CCN(CC(O)COCc2ccc(Cl)cc2)CC1 (stereo unspecified),"inconclusive: 29.1 µM [cytotoxic, single point]",–
N#Cc1c(-c2cccnc2)cc(-c2ccccc2)nc1N,–,inconclusive: 0.492%
CCOC(=O)C1=C(C)NC(=O)NC1C1CC=CCC1 (stereo unspecified),"inconclusive: 3.66 µM [falling, full curve]",–
Cc1ccc(S(=O)(=O)N2CCCCC2)cc1NC(=O)c1ccncc1,–,inconclusive
COc1ccc(OCCSc2nnc3c(Cl)cc(Cl)cn23)cc1,–,inconclusive: 1.41%
O=C(Cn1c(O)c(/C=C2\C=Nc3ccccc32)sc1=O)Nc1ccc2c(c1)OCO2,–,inconclusive: -35.2%
COc1ccccc1-c1cc(C(=O)Nc2cc(C)nn2-c2ccccc2)no1,"inconclusive: 6.51 µM [rising, partial curve, poor fit]",–
